Assay results as given in the supplement of paper PMC4604168 (melanoma cell lines).
This is one part of the list. Single values are uncertain, as repeats are few or missing.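 Cells were imaged in 1,536-well plates, and nuclei stained with an antibody against cleaved PARP were counted against all DNA-stained nuclei to give the apoptosis fraction. Screening doses were chosen to leave most cells alive, and resting and induced cleaved-PARP levels differ strongly between cell lines.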

test system: RVH-421; assay: cleaved PARP positive nuclei fraction relative to DMSO control; melanoma cells; higher = more apoptosis; settings: library dose: low library concentration; 72 h

Row | SMILES | cleaved PARP positive nuclei fraction
1 | Cn1c(Nc2ccc(C(F)(F)F)cc2)nc2cc(Oc3ccnc(-c4ncc(C(F)(F)F)[nH]4)c3)ccc21 + CCc1ccc(CCOc2ccc(CC3SC(=O)NC3=O)cc2)nc1 [pioglitazone] (first compound 0.08 µM, partner dose 2 µM) | 108%
2 | OCCn1cc(-c2cnc3nnn(Cc4ccc5ncccc5c4)c3n2)cn1 + N#Cc1c(O)c2c(-c3ccc(-c4ccccc4O)cc3)csc2[nH]c1=O [A769662] (first compound 1 µM, partner dose 2 µM) | 58.8%
3 | C=CCn1c(=O)c2cnc(Nc3ccc(N4CCN(C)CC4)cc3)nc2n1-c1cccc(C(C)(C)O)n1 + O=C(O)C(=O)Nc1sc2c(c1C(=O)O)CCNC2 [TCS401] (first compound 0.02 µM, partner dose 1.66667 µM) | 49.4%
4 | Cn1nnc2c(C(N)=O)ncn2c1=O [temozolomide] + COC(=O)c1sccc1S(=O)(=O)Nc1ccc(Nc2ccccc2)cc1OC [GSK0660] (first compound 2 µM, partner dose 1 µM) | 106%
5 | C[C@@H]1CCN(C(=O)CC#N)C[C@@H]1N(C)c1ncnc2[nH]ccc12 + Oc1nc(-c2ccc(C(F)(F)F)cc2)nc2c1CSCC2 [XAV939] (first compound 1 µM, partner dose 2 µM) | 98%
6 | COCC[n+]1c2c(n(Cc3cnccn3)c1C)C(=O)c1ccccc1C2=O + O=C(O)C(=O)Nc1sc2c(c1C(=O)O)CCNC2 [TCS401] (first compound 0.0004 µM, partner dose 1.66667 µM) | 74.6%
7 | O=C(CCCCCCC(=O)Nc1ccccc1)NO [vorinostat] + Oc1nc(-c2ccc(C(F)(F)F)cc2)nc2c1CSCC2 [XAV939] (first compound 0.08 µM, partner dose 2 µM) | 83.6%
8 | COc1cc(Nc2ncc(F)c(Nc3ccc4c(n3)NC(=O)C(C)(C)O4)n2)cc(OC)c1OC [Tamatinib] + COc1ccc(COc2ccc(Cc3cnc(N)nc3N)cc2OC)cc1 [GW2580] (first compound 0.4 µM, partner dose 1 µM) | 109%
9 | Cc1nc(Nc2ncc(C(=O)Nc3c(C)cccc3Cl)s2)cc(N2CCN(CCO)CC2)n1 [dasatanib] + CCc1ccc(CCOc2ccc(CC3SC(=O)NC3=O)cc2)nc1 [pioglitazone] (first compound 0.004 µM, partner dose 2 µM) | 98.3%
10 | Cc1cc(N2CCOCC2)cc2[nH]c(-c3c(NC[C@@H](O)c4cccc(Cl)c4)cc[nH]c3=O)nc12 + Cn1cc(/C=C2\C(=O)Nc3cccnc32)c2ccccc21 [GW441756] (first compound 0.2 µM, partner dose 0.4 µM) | 97.1%
11 | O=C(CCCCCCC(=O)Nc1ccccc1)NO [vorinostat] + O=C(O)C(=O)Nc1sc2c(c1C(=O)O)CCNC2 [TCS401] (first compound 0.08 µM, partner dose 1.66667 µM) | 24.2%
12 | OCCn1cc(-c2cnc3nnn(Cc4ccc5ncccc5c4)c3n2)cn1 + c1cc(-c2cnn3cc(-c4ccc(OCCN5CCCCC5)cc4)cnc23)ccn1 [Dorsomorphin] (first compound 1 µM, partner dose 0.4 µM) | 93.6%
13 | CC1(C)NC(=O)N(c2ccc([N+](=O)[O-])c(C(F)(F)F)c2)C1=O [nilutamide] + CCCCCCCCCCCC1=C(O)C(=O)C=C(O)C1=O [Embelin] (first compound 1 µM, partner dose 1.2 µM) | 75.1%
14 | Cn1nnc2c(C(N)=O)ncn2c1=O [temozolomide] + COc1ccc2c(c1)CCC1C2CCC2(C)C(NCCCCCCN3C(=O)C=CC3=O)CCC12 [U73122] (first compound 2 µM, partner dose 0.4 µM) | 48.4%
15 | Cn1nnc2c(C(N)=O)ncn2c1=O [temozolomide] + O=S(=O)(c1ccccc1)N(CC(F)(F)F)c1ccc(C(O)(C(F)(F)F)C(F)(F)F)cc1 [T0901317] (first compound 2 µM, partner dose 1.4 µM) | 44.5%
16 | O=C(CCCCCCC(=O)Nc1ccccc1)NO [vorinostat] + O=c1cc(-c2cccc3c2Sc2ccccc2S3)oc(N2CCOCC2)c1 [KU55933] (first compound 0.08 µM, partner dose 1 µM) | 19.1%

Taken from above:
O=C(CCCCCCC(=O)Nc1ccccc1)NO [vorinostat] + O=C(O)C(=O)Nc1sc2c(c1C(=O)O)CCNC2 [TCS401] (first compound 0.08 µM, partner dose 1.66667 µM) | cleaved PARP positive nuclei fraction: 24.2%
COCC[n+]1c2c(n(Cc3cnccn3)c1C)C(=O)c1ccccc1C2=O + O=C(O)C(=O)Nc1sc2c(c1C(=O)O)CCNC2 [TCS401] (first compound 0.0004 µM, partner dose 1.66667 µM) | cleaved PARP positive nuclei fraction: 74.6%
